Reference: PMC3499479
No constants are given. Whether binding was seen depends on the method and setting. Some results given as binding are weak or reduced against the parent protein; the word gives no strength.

Assays:
Assay in all cases: two-hybrid; FBX fused to Gal4-DB, ASK fused to Gal4-AD; yeast mating; selection on SD without Leu, Trp, His, Ade (high strength) or without Leu, Trp, His (low strength); every combination examined twice
[1] = biological target: T1, F-box (FBX) protein At3g04660 (Arabidopsis thaliana) (UniProt Q9SR08)
T1 sequence: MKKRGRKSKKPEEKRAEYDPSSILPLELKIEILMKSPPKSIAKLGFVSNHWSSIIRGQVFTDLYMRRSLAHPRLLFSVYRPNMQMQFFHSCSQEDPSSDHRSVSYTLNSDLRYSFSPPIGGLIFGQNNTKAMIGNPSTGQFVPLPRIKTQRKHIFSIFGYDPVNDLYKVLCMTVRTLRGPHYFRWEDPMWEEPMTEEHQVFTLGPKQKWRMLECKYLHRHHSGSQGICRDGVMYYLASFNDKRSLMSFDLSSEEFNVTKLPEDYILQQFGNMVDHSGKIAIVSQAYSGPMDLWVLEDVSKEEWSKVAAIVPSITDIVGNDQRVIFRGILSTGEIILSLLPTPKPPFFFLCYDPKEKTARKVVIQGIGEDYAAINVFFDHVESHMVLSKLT

[2] = biological target: T2, F-box (FBX) protein At5g21040 (Arabidopsis thaliana) (UniProt Q94AD8)
T2 sequence: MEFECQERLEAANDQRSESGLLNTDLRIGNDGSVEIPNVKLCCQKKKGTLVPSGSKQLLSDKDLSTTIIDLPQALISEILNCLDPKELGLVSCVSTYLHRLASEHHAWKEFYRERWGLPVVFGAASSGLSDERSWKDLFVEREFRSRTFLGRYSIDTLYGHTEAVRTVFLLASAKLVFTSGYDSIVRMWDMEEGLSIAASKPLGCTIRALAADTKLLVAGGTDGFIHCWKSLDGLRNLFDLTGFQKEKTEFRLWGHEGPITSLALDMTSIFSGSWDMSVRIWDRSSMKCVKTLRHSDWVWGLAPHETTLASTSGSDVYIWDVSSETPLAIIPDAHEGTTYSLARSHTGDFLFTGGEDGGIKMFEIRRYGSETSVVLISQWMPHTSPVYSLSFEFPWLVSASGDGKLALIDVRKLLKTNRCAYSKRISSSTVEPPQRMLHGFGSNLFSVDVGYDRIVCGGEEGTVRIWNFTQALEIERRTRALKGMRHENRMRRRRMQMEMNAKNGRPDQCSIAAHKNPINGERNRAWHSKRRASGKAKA

[3] = biological target: T3, F-box (FBX) protein At1g31080 (Arabidopsis thaliana) (UniProt Q9SA02)
T3 sequence: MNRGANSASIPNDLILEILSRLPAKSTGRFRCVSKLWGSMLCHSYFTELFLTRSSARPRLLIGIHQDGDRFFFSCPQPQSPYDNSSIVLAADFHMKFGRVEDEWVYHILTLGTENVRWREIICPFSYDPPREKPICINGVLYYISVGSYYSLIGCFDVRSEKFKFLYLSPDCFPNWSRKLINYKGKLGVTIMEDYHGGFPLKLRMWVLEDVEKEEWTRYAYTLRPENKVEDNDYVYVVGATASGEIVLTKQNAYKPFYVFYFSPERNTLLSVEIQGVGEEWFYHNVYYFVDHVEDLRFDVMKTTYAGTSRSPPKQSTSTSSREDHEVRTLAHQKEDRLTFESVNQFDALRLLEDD

[4] = biological target: T4, F-box (FBX) protein At1g47730 (Arabidopsis thaliana) (UniProt Q9SXA0)
T4 sequence: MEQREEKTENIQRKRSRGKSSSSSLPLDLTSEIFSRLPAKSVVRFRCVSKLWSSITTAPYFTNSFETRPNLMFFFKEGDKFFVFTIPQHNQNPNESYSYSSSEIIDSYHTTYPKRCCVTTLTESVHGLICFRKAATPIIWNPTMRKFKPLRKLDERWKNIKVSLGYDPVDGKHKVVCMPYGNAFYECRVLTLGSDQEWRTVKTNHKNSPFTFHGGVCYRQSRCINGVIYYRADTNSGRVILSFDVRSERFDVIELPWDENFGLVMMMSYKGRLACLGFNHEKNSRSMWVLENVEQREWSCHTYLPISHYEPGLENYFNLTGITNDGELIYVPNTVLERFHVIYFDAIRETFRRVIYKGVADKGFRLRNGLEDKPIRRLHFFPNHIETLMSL

[5] = biological target: T5, F-box (FBX) protein At1g51290 (Arabidopsis thaliana) (UniProt Q9SYD0)
T5 sequence: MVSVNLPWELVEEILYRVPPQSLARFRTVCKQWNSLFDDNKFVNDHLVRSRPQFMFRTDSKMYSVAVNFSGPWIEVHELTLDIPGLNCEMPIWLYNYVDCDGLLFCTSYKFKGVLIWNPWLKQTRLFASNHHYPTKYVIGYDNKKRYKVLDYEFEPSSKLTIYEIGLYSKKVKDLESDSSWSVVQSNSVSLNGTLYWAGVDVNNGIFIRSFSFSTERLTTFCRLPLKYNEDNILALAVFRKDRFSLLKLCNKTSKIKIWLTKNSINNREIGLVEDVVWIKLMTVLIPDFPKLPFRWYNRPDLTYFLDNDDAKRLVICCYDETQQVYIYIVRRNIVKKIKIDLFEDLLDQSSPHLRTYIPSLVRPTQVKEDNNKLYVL

[6] = biological target: T6, F-box (FBX) protein At2g43270 (Arabidopsis thaliana) (UniProt Q1PEU9)
T6 sequence: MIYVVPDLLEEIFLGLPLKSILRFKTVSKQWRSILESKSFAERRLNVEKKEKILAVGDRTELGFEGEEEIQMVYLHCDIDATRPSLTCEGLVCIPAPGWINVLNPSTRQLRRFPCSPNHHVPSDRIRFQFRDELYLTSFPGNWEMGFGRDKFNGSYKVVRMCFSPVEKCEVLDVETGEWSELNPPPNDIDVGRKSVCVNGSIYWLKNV

Measured: binding

B1: Arabidopsis SKP1-LIKE 14 (ASK14) (protein, UniProt O81057 1-149)
chain: MSSNKIVLSSSDGESFEVEEAVARKLKIVEHMIEDDCVVTEVPLQNVTGKILSIVVEYCKKHVVDEESDEFKTWDEEFMKKFDQPTVFQLLLAANYLNIKGLLDLSAQTVADRIKDKTPEEIREIFNIENDFTPEEEAAVRKENAWAFE
binds: all assays above
